From patent US8828416B2 (Cordis Corporation, priority 2004, dated 2014)
At least one compound was matched to its structure with a doubt left.

How the values were obtained:
Assay type in all cases: in vivo
Porcine = Porcine studies with rapamycin-coated stents; details: porcine model, nonerodible polymeric stent coating, 35-430 ug/ 5-18 mm coronary stent, maximal at about twenty-eight to thirty days
Rabbit = Rabbit studies with rapamycin-coated stents; details: rabbit model, nonerodible polymeric stent coating, 35-430 ug/ 5-18 mm coronary stent, maximal at about twenty-eight to thirty days
[1] = tested on: monocyte chemotactic protein (MCP-1); assay: MCP-1 levels in the vascular wall after rapamycin delivery from a stent; details: delivered from a stent

Structure (SMILES): CO[C@H]1C[C@@H]2CC[C@@H](C)[C@@](O)(O2)C(=O)C(=O)N2CCCC[C@H]2C(=O)O[C@H]([C@H](C)C[C@@H]2CC[C@@H](O)[C@H](OC)C2)CC(=O)[C@H](C)/C=C(\C)[C@@H](O)[C@@H](OC)C(=O)[C@H](C)C[C@H](C)/C=C/C=C/C=C/1C [Rapamycin, rapamycin]
- peak reduction in neointimal hyperplasia (Porcine): fifty to fifty-five percent reduction
- peak reduction in neointimal hyperplasia (Rabbit): fifty to fifty-five percent reduction
- reduction of monocyte chemotactic protein (MCP-1) levels in the vascular wall [1]: highly effective in reducing monocyte chemotactic protein (MCP-1) levels
